Results deposited as PubChem BioAssay AID1224826 (NIAID, 2016).
The whole screen tested about 17,000 reagents; this is a random part of them. About 1,110 of all reagents (6.6%) count as active. 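Active means lowered or raised reporter signal; replicate intensities are raw and not normalised per plate.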 Unmarked entries are inactive. Some reagents were tested in more than one well and are listed for each. No sequences are given here.

Aim: 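Genes that change LPS-induced Tnf promoter activity in mouse macrophages when knocked down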 (primary screen)
Cells: RAW264.7 G9 macrophages from mouse bearing reporters for p65 (GFP) and the Tnf promoter (mCherry)
Knock-down reagent: siRNA pool against mouse genes, 100 nM
Time to read-out: 16 h of LPS stimulation, after 2 days of siRNA transfection
Conditions: bacterial lipopolysaccharide (Salmonella minnesota R595), 10 ng/ml
Measured: 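Nuclear mCherry signal of the Tnf promoter reporter measured by imaging after background removal, scaled to each plate median and turned into robust z-scores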
Direction: Tnf reporter robust z-score: higher = stronger Tnf promoter reporter signal after LPS; Tnf reporter intensity: higher = stronger Tnf promoter reporter signal
Active means: 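a well counts as active at a score of -1.3 or below (Tlr4 knock-down control median) or above 3 (raised signal); controls and wells holding fewer than 50 cells are excluded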
Calls: active = Tnf reporter clearly lowered or raised; inactive = no clear change in Tnf reporter

gene	PubChem SID	Tnf reporter robust z-score	fewer than 50 cells in well	Tnf reporter intensity, replicate 1	Tnf reporter intensity, replicate 2
Cimap1c (ciliary microtubule associated protein 1C)	SID315481819	1.21	enough cells in well	97.4	233
Smad4 (SMAD family member 4)	SID315467802	-0.67	enough cells in well	234	151
Or2a14 (olfactory receptor family 2 subfamily A member 14)	SID315480303	1.78	enough cells in well	99.3	190
4933434M16Rik (RIKEN cDNA 4933434M16 gene)	SID315474200	1.35	enough cells in well	275	198
A830073O21Rik (RIKEN cDNA A830073O21 gene)	SID315481270	-0.21	enough cells in well	145	158
Sdha	SID315472732	0.05	enough cells in well	272	230
Mycbp2 (MYC binding protein 2, E3 ubiquitin protein ligase)	SID315476502		fewer than 50 cells per well; well left out of calls	104	98.2
Cetn2 (centrin 2)	SID315470356	-0.75	enough cells in well	115	142
4921524J17Rik (RIKEN cDNA 4921524J17 gene)	SID315472601	1.08	enough cells in well	280	59.6
Slc35c1	SID315478629	-1.84 (active)	enough cells in well	76	59.7
Grn (granulin)	SID315467041	0.35	enough cells in well	214	225
Dpm2 (dolichyl-phosphate mannosyltransferase subunit 2, regulatory)	SID315466373	3.66 (active)	enough cells in well	403	267
Brd8 (bromodomain containing 8)	SID315475597	-1.38 (active)	enough cells in well	70.4	96.6
Bptf (bromodomain PHD finger transcription factor)	SID315477471	-0.66	enough cells in well	185	172
Ccdc127 (coiled-coil domain containing 127)	SID315473020	0.6	enough cells in well	378	75.4
Apom (apolipoprotein M)	SID315471309	-0.67	enough cells in well	144	115
C2cd4c (C2 calcium-dependent domain containing 4C)	SID315479344		fewer than 50 cells per well; well left out of calls	0	92.5
Derl1 (Der1-like domain family, member 1)	SID315473239	1.34	enough cells in well	343	122
Shtn1 (shootin 1)	SID315474268		fewer than 50 cells per well; well left out of calls	197	81.5
Xpot (exportin, tRNA (nuclear export receptor for tRNAs))	SID315474691	0.29	enough cells in well	240	267
Prorsd1 (prolyl-tRNA synthetase domain containing 1)	SID315473322		fewer than 50 cells per well; well left out of calls	151	46.9
Per1 (period circadian clock 1)	SID315468467	0.08	enough cells in well	238	194
Kcnk4 (potassium channel, subfamily K, member 4)	SID315467592	0.45	enough cells in well	241	137
Drp2 (dystrophin related protein 2)	SID315466386	0.58	enough cells in well	282	242
Zfp692 (zinc finger protein 692)	SID315476395	0.32	enough cells in well	216	219
Spink4 (serine peptidase inhibitor, Kazal type 4)	SID315469426	1.43	enough cells in well	178	120
Or6c76 (olfactory receptor family 6 subfamily C member 76)	SID315480012	3.01 (active)	enough cells in well	159	289
Slfn9 (schlafen 9)	SID315479371		fewer than 50 cells per well; well left out of calls	91.2	50.2
Or6a2 (olfactory receptor family 6 subfamily A member 2)	SID315468304	-0.62	enough cells in well	243	44.2
Or2a56 (olfactory receptor family 2 subfamily A member 56)	SID315480305		fewer than 50 cells per well; well left out of calls	66.1	56.4
Spint2 (serine protease inhibitor, Kunitz type 2)	SID315469428	-0.64	enough cells in well	193	191
Bbx (bobby sox HMG box containing)	SID315474071		fewer than 50 cells per well; well left out of calls	118	139
Dars1 (aspartyl-tRNA synthetase 1)	SID315478496	-0.51	enough cells in well	187	194
Cbx2 (chromobox 2)	SID315465803	-0.66	enough cells in well	76.7	207
Tra2b (transformer 2 beta)	SID315469251	3.57 (active)	enough cells in well	101	227
Tra2b (transformer 2 beta)	SID315469251	0	enough cells in well	174	127
Or8k36 (olfactory receptor family 8 subfamily K member 36)	SID315481942	0.09	enough cells in well	192	156
Cxcl9 (C-X-C motif chemokine ligand 9)	SID315467924	0.41	enough cells in well	221	379
Gapdh (glyceraldehyde-3-phosphate dehydrogenase)	SID315466827	-0.8	enough cells in well	141	71.9
Gapdh (glyceraldehyde-3-phosphate dehydrogenase)	SID315481963	-1.22	enough cells in well	143	86.4
Fuca2 (fucosidase, alpha-L- 2, plasma)	SID315472671	-0.61	enough cells in well	95.2	159
Gmfb (glia maturation factor, beta)	SID315472050	0.31	enough cells in well	199	190
Or6b3 (olfactory receptor family 6 subfamily B member 3)	SID315480647	-0.92	enough cells in well	135	75.9
Fam110c (family with sequence similarity 110, member C)	SID315476469		fewer than 50 cells per well; well left out of calls	163	216
Or5bw2 (olfactory receptor family 5 subfamily BW member 2)	SID315480069	-1.03	enough cells in well	123	67.1
Cbx7 (chromobox 7)	SID315470986	0.48	enough cells in well	207	213
Litaf (LPS-induced TN factor)	SID315471654	1.45	enough cells in well	300	204
Syk (spleen tyrosine kinase)	SID315469547	0.31	enough cells in well	194	90.8
Nog (noggin)	SID315468205	-0.5	enough cells in well	173	173
Cmtm3 (CKLF-like MARVEL transmembrane domain containing 3)	SID315473419	0.79	enough cells in well	174	270
Rnf133 (ring finger protein 133)	SID315481844	-1.16	enough cells in well	78.5	77.1
Hmox2 (heme oxygenase 2)	SID315467232	-0.16	enough cells in well	216	187
Smagp (small cell adhesion glycoprotein)	SID315477500	0.4	enough cells in well	221	250
Prune1 (prune exopolyphosphatase)	SID315478719	-0.1	enough cells in well	194	161
Hoxa5 (homeobox A5)	SID315467254	0.51	enough cells in well	257	214
Bphl (biphenyl hydrolase like)	SID315473368	0.83	enough cells in well	205	181
Stac3 (SH3 and cysteine rich domain 3)	SID315479354	-0.05	enough cells in well	207	154
Alg2 (ALG2 alpha-1,3/1,6-mannosyltransferase)	SID315471661	0.3	enough cells in well	245	189

Part of the list above, limited to “Tnf reporter robust z-score”.
Hmox2 (heme oxygenase 2) [SID315467232]: -0.16
Smagp (small cell adhesion glycoprotein) [SID315477500]: 0.4
Prune1 (prune exopolyphosphatase) [SID315478719]: -0.1
Hoxa5 (homeobox A5) [SID315467254]: 0.51
